This assay has as its target GST-ERK2 (recombinant, 14-198, Upstate) (UniProt P63085). Put plainly: co-IP; Semi in vitro kinase assay: anti-flag precipitate of flag-Crabp1 from Cos-1 cells (treated with 100 nM atRA, compound 3, compound 4 or control for 30 min) incubated with 0.4 ug pure GST-ERK2 in 40 ul kinase buffer (20 mM MOPS pH 7.2, ATP, MgCl2) at 30 °C for 30 min; association seen by western blot (Fig. 2B, lower panel); only the target purified. (A western blot detects proteins with antibodies after separation by electrophoresis.)

Protein sequences, listed by entry. Tags and fused reporters are not part of them.
UniProt P63085: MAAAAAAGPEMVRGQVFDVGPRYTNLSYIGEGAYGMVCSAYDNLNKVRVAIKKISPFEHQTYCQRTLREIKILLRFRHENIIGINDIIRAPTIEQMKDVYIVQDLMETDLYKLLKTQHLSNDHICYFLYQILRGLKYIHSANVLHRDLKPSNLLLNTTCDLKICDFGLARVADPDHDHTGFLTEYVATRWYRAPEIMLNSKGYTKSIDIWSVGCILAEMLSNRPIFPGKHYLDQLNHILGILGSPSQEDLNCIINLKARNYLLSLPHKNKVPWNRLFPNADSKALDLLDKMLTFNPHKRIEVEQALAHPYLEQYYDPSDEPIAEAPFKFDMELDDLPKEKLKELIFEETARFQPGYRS
UniProt P62965: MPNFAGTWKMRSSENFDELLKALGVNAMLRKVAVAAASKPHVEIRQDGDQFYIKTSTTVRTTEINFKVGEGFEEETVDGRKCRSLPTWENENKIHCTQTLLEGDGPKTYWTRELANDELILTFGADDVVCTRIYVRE

No constants are given. Whether binding was seen depends on the method and setting. In cells and extracts the contact can be indirect. Some binding calls cover weakened binding; strength is not graded here.

For “flag-Crabp1 (cellular retinoic acid binding protein 1) (from UniProt P62965 1-137)”, the binding entry is reported as “binds”.

Source of the values: PMC4776112.
